Experimental data: PubChem BioAssay AID1508588 (Peter MacCallum Cancer Centre, 2020)
The deposit covers about 18,000 reagents; this is an unselected part. Of all reagents, 790 (4.4%) are marked active. 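Calls rest on a combination of fold-change classes in drug and vehicle arms, not all shown here.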 Unmarked entries are inactive.

Aim: 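Which gene losses make BRAF-mutant melanoma cells more responsive to vemurafenib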 (primary screen)
Cell system: human WM266.4 melanoma cells (BRAF V600 mutant)
Reagent: siRNA pool against human genes, 40 nM
Duration: 96 h from transfection to read-out
Conditions: vemurafenib 300 nM (about IC25), added 48 h after transfection, for 48 h; comparison arm got DMSO vehicle only
Read-out: 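Ratios to non-targeting siRNA for cell gain, counted as DAPI nuclei after minus before drug and averaged over two replicates, and for absorbance-read medium lactate per cell; both binned into fold-change classes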
Direction: cell gain with vemurafenib: higher = more cell gain than with non-targeting siRNA; lactate per cell with vemurafenib: higher = more lactate made per cell
Hit rule: 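Enhancement is called by pairing each knock-down's vehicle-arm and drug-arm fold-change classes for viability or glycolysis; which class combinations qualify is not given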
Meaning of the calls: active = enhances vemurafenib effect; inactive = no enhancement seen

no.	target gene	cell gain with vemurafenib	lactate per cell with vemurafenib
1	RNF20	1.39	0.74
2	ADCY3	0.88	1.04
3	THEMIS	0.37	0.8
4	DLG2	1.08	0.86
5	LOC155060	0.9	0.8
6	SPRR2E	0.29 (active)	0.18
7	ZNF322	0.19	1.2
8	DEFB103A	0.33	1.31
9	ABI3	0.51	0.37
10	MAPKAPK2	0.81	0.61
11	SMIM19	0.52	1
12	CCR3	0.37	0.84
13	IFNE	-0.03	3.11
14	LILRA3	1.04	0.84
15	XTBD1	0.46	0.78
16	GIPC1	0.58 (active)	0.4
17	CCZ1	0.79 (active)	0.41
18	FBXO32	0.73	1.22
19	IL36RN	0.47	0.75
20	FMO4	0.47	0.63
21	TAS2R4	1.03	0.49
22	IGF2BP2	0.43	0.89
23	ERO1B	0.71	1.17
24	SNRNP70	0.4	0.5
25	HMGN3	0.49	1.54
26	DMRTC1B	0.04 (active)	0.55
27	AURKA	-0.09	2.12
28	CD9	0.25 (active)	0.18
29	HNRNPK	-0.03	2.94
30	METTL14	0.46	0.46
31	DEPP1	0.49	0.68
32	NFKBIE	0.78	1.02
33	TBL1X	0.23	0.85
34	SLC25A2	0.49	0.91
35	ZNF572	0.45	0.66
36	RPAIN	0.8	0.77
37	TANK	0.59	1.31
38	H2AC16	0.07	2.23
39	ZNF207	0.06	0.87
40	KRTAP13-2	0.62	1.57
41	MRGPRE	0.69	0.8
42	EIF4B	0.37	1.23
43	ACER2	-0.06	2.05
44	AKR1D1	0.33	1.71
45	GP5	1.07	0.92
46	RHD	1.08	0.92
47	UACA	0.9	0.64
48	EFCAB12	0.5	1.38
49	MAP7D2	0.7	0.86
50	ATP6AP1	0.58	1.08
51	CCNJ	0.7	0.56
52	BCL2L13	0.75	0.76
53	NOC3L	0.67	1.27
54	HEXB	0.72	1.31
55	PUS3	0.77	1.08
56	TLE2	1.01	0.84
57	RHOJ	0.51	1.49
58	CBX4	0.2	0.79
59	FCRL6	0.38	1.4
60	VGF	0.51	1.17
61	RTP1	0.14	0.65
62	CYP4Z1	0.76	0.26
63	KRTCAP2	0.25	0.88
64	PPIF	0.92	0.78
65	FRMPD4	0.89	0.92
66	NNAT	0.63	0.82
67	NECTIN3	0.6	1.37
68	GATA1	0.28	1.43
69	UNC93A	1	0.7
70	SPATA31G1	-0.06	4.62
71	KCNIP4	0.25	1.17
72	RPL35A	-0.04	0.19
73	TATDN2	0.89	0.92
74	SYMPK	0.8	0.6
75	CLEC12B	0.3	0.65
76	CHORDC1	0.85	0.44
77	GEMIN5	0.54	1.19
78	PLAAT4	0.68	1.42
79	PNKP	0.25	1.6
80	LCN10	0.51	2.16
81	UBE2V1	0.56	1.56
82	NXF3	0.03	2.3
83	NLRP5	0.28	0.55
84	CORO1A	1.16	0.88
85	SLITRK5	0.63	0.6
86	TYRO3	0.45	1.21
87	TEK	0.91	0.82
88	PLAAT1	0.78	1.55
89	EIF2B2	0.64	0.58
90	CTNNAL1	0.65	0.78
91	OPCML	1.25	0.58
92	FHIP2B	0.49	0.43
93	OR52K2	0.73	0.84
94	MPP4	0.73	0.84
95	TOGARAM1	0.44	0.81
96	TATDN1	0.25	0.79
97	TSFM	0.75	0.84
98	PHF7	0.9	1
99	PCDHB9	0.63	1.31
100	TP53TG3	0.17	0.26
101	FAM177A1	0.28	1.25
102	COG8	0.16	0.74
103	PITPNM2	1	0.36
104	TMEM200A	0.37	0.72
105	FAXDC2	0.6	0.76
106	MS4A8	0.52	0.54
107	GUCY2D	0.14	0.55

Hits, among the entries above:
target gene	cell gain with vemurafenib	lactate per cell with vemurafenib
SPRR2E	0.29 (active)	0.18
GIPC1	0.58 (active)	0.4
CCZ1	0.79 (active)	0.41
DMRTC1B	0.04 (active)	0.55
CD9	0.25 (active)	0.18
